The results in this text go back to PubChem BioAssay AID1347423 (Functional Genomics Laboratory (NCATS/FGL), 2020).

The campaign covered roughly 52,000 sequences. About 210 (0.4%) were called active.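 The calls were made as follows: active = gene whose silencing raises cell survival under the drug, median off-target-corrected z-score across its silencing RNAs 2 or more; inactive = the rest.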 This is one part of the list.

The test in a line: Resistance to Poly (ADP-Ribose) Polymerase inhibitor: Gene Identification via Genome-wide siRNA Screen. The conditions noted are these: mouse BRCA2 R2336H ES cells, olaparib, CellTiter-Glo viability; hits give high values. Put shortly: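 Mouse BRCA2 R2336H ES cells were reverse-transfected with siRNA (20 nM final), treated at 48 h with 500 nM olaparib, and read by CellTiter-Glo after 72 h. Scores: MAD-based z per siRNA, median per gene, seed off-target correction.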
Take “GGAUGUUUUGAAAUCUCGUTT against 5730439E10Rik”: the z-score is inactive: -0.159.

For CGGAUAGCUUACUAAUCUUTT against Gas7, the z-score was inactive: 1.93. On to CCUGGCAAGGUUACGAAGUTT against Gsta3, for which the z-score is inactive: -0.169. To GCGGUUUUUUUGGAAGCCATT against Ehf belongs inactive: -0.805; to CGCAGAGUUCUAGUAACUCTT against Tcfl5, inactive: 0.409.

With GGUUAUCAGUUGCAUUGUUTT against Gpr37l1, the z-score was inactive: -1.41.

GGAGAUUGUGCGCCGUAACTT against Gprc2a: the z-score is inactive: 0.367. As for GCCUUUAAUCAACCCAAGATT against Scd1, the z-score was inactive: -0.945. CCAUGCCAUGAGCAUCCAUTT against Bbs2: the z-score was inactive: -1.77.

“GGUUGUGCUGAUAUUUUACTT against D15Ertd735e”: the z-score is inactive: 0.526.

Regarding GGAUGCGUUCUAUGUUGCGTT against Odc1, the z-score is inactive: -0.271. With CCUCUUCGUUAAUUGGACATT against Fbxw2, the z-score was inactive: -0.502.

Take GGCUAUGUAGAUCUUGUCATT against Nqo3a2: the z-score was inactive: 0.626. To GGGCUUGUAGAUGUGCGUATT against Hic2 belongs inactive: -1.3; to GCCCAGCUAACUUCCACCUTT against Mmp10, inactive: -0.187. For CCAUUUUUCCUACGUGGGUTT against AA407930 the value was inactive: 0.00816; for GGUCUGAGUUUUAAACAGUTT against Gmfb, inactive: 0.0999. For GGCCUGAAGAAGAUGCAGGTT against Rpl29 the value was inactive: -0.00873; for GGAGAUUUGCCGUAUGGAUTT against Wwox, inactive: -1.81. On to CCUGAUCCGAUCAUCAGGATT against Pscdbp, for which the z-score is inactive: -0.447. For the sequence “GGAAAAUGGUUCUUUCUGCTT against 6330583M11Rik”, the z-score was inactive: 1.17.

On to CUCAAUGGGAGCCACUUUUTT against LOC434197, for which the z-score was inactive: -1.85.

With GGAUAUAAGACACAAGCUGTT against Mpa2, the z-score was inactive: -0.433. For GGAUCAUAUGCAGAAAUCUTT against Zfp62 the value was inactive: 1.1; for GGAAAGACAAAAUCUAUGATT against Peg3, inactive: 0.715.

Turning to “GGUAUAAACCAAAAAGCAGTT against 0610012K18Rik”, the z-score is inactive: -0.116. To GGAGGAGUUUCGCUACGGATT against Sars2 belongs inactive: -0.403. For “GCCGGAUCCGAACAAGGAUTT against 3000003F02Rik” the value was inactive: 0.0925; for CCUUCGAGAUUGAACUGUATT against Numbl, inactive: 0.358. For “GGCUGAAGUUAUCCUGCCATT against 4933430J11”, the z-score was inactive: 0.181.

In the case of GCCUAUCACGAGCUAUGAUTT against Shkbp1, the z-score is inactive: -1.79. GGCUGAUGUGGUGUGCUAUTT against Aoah: the z-score is inactive: 0.392. Take GGCUCAAAAAGAAAGAGUUTT against Myh2: the z-score is inactive: -0.441. To CCUCAACACUCAGCUCAAUTT against Ifna14 belongs inactive: -1.13; to GGUCCAAGUAGCUCUUCACTT against Olfr5, inactive: 1.79; to GCUCUCACAAGAUUGUUUCTT against Eapa2, inactive: 0.578. For the sequence CGAUGGUGAUUCCCAUGUUTT against Olfr996, the z-score was inactive: -0.114. Consider “GGGAAAUCACCAUAUUUCCTT against 9030605H24Rik”, for which the z-score was inactive: -0.0686. In the case of AGAAGUCCUCAAAAUGACCTT against V1rd20, the z-score is inactive: -1.11. To “GCCAAACAUGGAGAGAGCATT against C630004H02Rik” belongs inactive: -2.56. Consider CCAGUGGAGUAAACUGUAATT against Ltbp1, for which the z-score is inactive: 1.13. For GGUCUUUUGUAAAAACCCUTT against Sytl2 the value was inactive: -0.0827. CGGCACUCGAAAGUUUUUATT against Rassf2: the z-score was inactive: 0.485.

Consider GGAGUUAUACAGGUUUAUGTT against Nup155, for which the z-score is inactive: -0.082. To GGGUUUGGACUGAUAUACUTT against Vrk2 belongs inactive: -0.393; to CCAUGGUACUAAUGUAAAUTT against Eef1e1, inactive: 0.272.

Take “GGAGGAGUAUGAAGAGCUGTT against 1200014M14Rik”: the z-score was inactive: -1.99. For GGCACUCAAUGGUGAGCAATT against Sipa1 the value was inactive: 0.847; for “GGAUAAGGACCUCUUCUCUTT against 2300004C15Rik”, inactive: -1.05; for GGCAUUGCUGGACUUUGAATT against Mvp, inactive: -2.8. For GGUUAUCCACAUCUUCUCUTT against Mutyh the value was inactive: 1.26; for GCCCAUCUUAGCAUUCUCUTT against Aldh4a1, inactive: -0.0534.

GGCCUGGAUUCCUUAACAATT against Lgi1: the z-score was inactive: -1.52. As to GGAGAAAAUUGCCUAUCUGTT against Tuft1, the z-score was inactive: -0.19. For GCUCAUGACUUUUAGCGGCTT against Mif the value was inactive: 0.945. To GCCUUUGAGUUUUAAGCCATT against Cobl belongs inactive: -1.15; to GGACUAGAAAUUAGUACCATT against Klf15, inactive: -1.35; to GGGUGAAAGUUCAAGGUCUTT against Prss35, inactive: 1.13. As to GGUUUCCCUUUGUAUCAUGTT against Olfr1451, the z-score is inactive: -0.791. To GGACAAGAAGCAGGACAUCTT against Golga4 belongs inactive: -2.08. In the case of GGAGCAUCAGACAUUAGACTT against Pdcd2, the z-score is inactive: 0.585.

For the sequence GGGCAGAUGGAAGAGAUCATT against Onecut1, the z-score was inactive: 1.37.

GCGAAGUGAAGACAUUGUATT against Calm2: the z-score was inactive: 1.31. As for GACAUAUUUUCAUCACUGATT against V1rc16, the z-score is inactive: 0.721.

“GGUAAAUACUGUUUCUUAGTT against 2700023B17Rik”: the z-score was inactive: 0.498. Consider GGGUUUUAAGAAUCAGACUTT against Egfl3, for which the z-score was inactive: 0.999.

Turning to “GCCAUACUUUAAGAGUGUGTT against 9330161F08Rik”, the z-score is inactive: -1.73.
